The results in this text go back to the supplement of paper PMC4635364.

The test system of assay [1] is ReNCell VM. In words: neuronal differentiation score (DCX+ cell fraction vs untreated, manual image score) (score (-3 to 3)); higher = more neuronal differentiation. Conditions: 2 uM, 2 weeks.
Assay [2] concerns ReNCell VM. Kind of assay: dopaminergic neuron differentiation score (TH+ cell fraction vs untreated, manual image score) (score (0 to 3)); higher = more TH+ dopaminergic neuron differentiation. As to conditions: 2 uM, 4 weeks, BDNF 10 ng/ml + GDNF 10 ng/ml.

Structures are written as SMILES. Where a name gives a salt, the structure may show the parent alone. The list shows a part of the results. Repeats in this data set agree poorly, so a single value says little.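 Cells: ReNCell VM human fetal ventral-midbrain neural progenitors, differentiated mitogen-free. Blinded raters compared doublecortin-stained (early neurons) or tyrosine hydroxylase-stained (dopaminergic neurons) images with untreated wells, where 0 means no change. After repeats and both raters were averaged, compounds scoring 2 or above became hits for retesting.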

For `NCCC(=O)NCCc1c[nH]cn1` [Carcinine], the neuronal differentiation score in the assay with ReNCell VM [1] (library: Phytochemical) was inactive: 0. Moreover, the “dopaminergic neuron differentiation score” value in the assay on ReNCell VM [2] (library: Phytochemical) is inactive: 0.
In the case of `C[N+]1(CCCCC[N+]2(C)CCCC2)CCCC1` [Pentolinium di[L(+)-tartrate]], the neuronal differentiation score with ReNCell VM [1] (library: LOPAC) was inactive: 0. In addition, the “dopaminergic neuron differentiation score” value with ReNCell VM [2] (library: LOPAC) was inactive: 0.
For the compound `CCOC(=O)[C@@](C)(N)Cc1ccc(O)c(O)c1` [Methyldopate hydrochloride], the neuronal differentiation score in the assay with ReNCell VM [1] (library: Prestwick) was inactive: 0. Besides, the “dopaminergic neuron differentiation score” value in the assay with ReNCell VM [2] (library: Prestwick) was inactive: 0.
As for `CC(=O)OC[C@@]1(O)C[C@@]23CC[C@@H]4c5ccoc5CC[C@@]4(C)[C@@H]2CC[C@@H]1C3` [cafestol acetate], in the assay with ReNCell VM [1] (library: Natural), the neuronal differentiation score was inactive: 0. The “dopaminergic neuron differentiation score” value with ReNCell VM [2] (library: Natural) is inactive: 0.
Consider `COc1ccc([C@H]2Oc3cc(OC)cc(OC)c3C[C@H]2O)cc1`, for which the neuronal differentiation score with ReNCell VM [1] (library: Spectrum) is inactive: 0. The “dopaminergic neuron differentiation score” value with ReNCell VM [2] (library: Spectrum) is inactive: 0.
On to `C=CC(C)(O)CCC1C(=C)CC(O)C2C(C)(C)CCCC12C` (stereo not drawn), for which the neuronal differentiation score with ReNCell VM [1] (library: Spectrum) is inactive: 0. For the same compound, the “dopaminergic neuron differentiation score” value with ReNCell VM [2] (library: Spectrum) was inactive: 0.
In the case of `Cc1cc(C)cc(OCC2CNC(=O)O2)c1` (stereo not drawn), the neuronal differentiation score in the assay on ReNCell VM [1] (library: Spectrum) is inactive: 0. Besides, the “dopaminergic neuron differentiation score” value in the assay on ReNCell VM [2] (library: Spectrum) is inactive: 1.
For the compound `CC(C)(CO)C(O)C(=O)NCCCO` (stereo not drawn) [Panthenol (D)], the neuronal differentiation score with ReNCell VM [1] (library: Prestwick) was inactive: 0. Further, the “dopaminergic neuron differentiation score” value with ReNCell VM [2] (library: Prestwick) is inactive: 0.
As for `Cn1c(=O)c2nc[nH]c2n(C)c1=O`, the neuronal differentiation score in the assay on ReNCell VM [1] (library: Spectrum) was inactive: -1. In the assay with ReNCell VM [2] (library: Spectrum), the “dopaminergic neuron differentiation score” value was inactive: 0.
As for `Oc1ccc(Cl)c2cccnc12`, the neuronal differentiation score with ReNCell VM [1] (library: Spectrum) is inactive: 0. The “dopaminergic neuron differentiation score” value in the assay on ReNCell VM [2] (library: Spectrum) is inactive: 0.
On to `COc1ccc(-n2nc(CCC(=O)N(C)O)cc2-c2ccc(Cl)cc2)cc1`, for which the neuronal differentiation score in the assay on ReNCell VM [1] (library: Spectrum) was inactive: 0. Moreover, the “dopaminergic neuron differentiation score” value in the assay with ReNCell VM [2] (library: Spectrum) was inactive: 0.
As to `NS(=O)(=O)c1cc(C(=O)O)c(NCc2ccco2)cc1Cl`, in the assay with ReNCell VM [1] (library: Spectrum), the neuronal differentiation score was inactive: 0. The “dopaminergic neuron differentiation score” value in the assay with ReNCell VM [2] (library: Spectrum) is inactive: 0.
Consider `CC[C@H]1OC(=O)[C@H](C)[C@@H](O[C@H]2C[C@@](C)(OC)[C@@H](O)[C@H](C)O2)[C@H](C)[C@@H](O[C@@H]2O[C@H](C)C[C@H](N(C)C)[C@H]2O)[C@](C)(OC)C[C@@H](C)C(=O)[C@H](C)[C@@H](O)[C@]1(C)O` [Clarithromycin], for which the neuronal differentiation score with ReNCell VM [1] (library: Prestwick) is inactive: 0. The “dopaminergic neuron differentiation score” value with ReNCell VM [2] (library: Prestwick) is inactive: 0.
As for `O=C(O)Cc1ccc(-c2ccccc2)cc1` [Felbinac], the neuronal differentiation score in the assay with ReNCell VM [1] (library: Prestwick) is inactive: 0. Besides, the “dopaminergic neuron differentiation score” value with ReNCell VM [2] (library: Prestwick) was inactive: 0.
For the compound `C#CCCCCCCCCCCCC(O)CC(O)CO.C=CCCCCCCCCCCCC(O)CC(O)CO` (stereo not drawn), the neuronal differentiation score with ReNCell VM [1] (library: Spectrum) was inactive: 0. Besides, the “dopaminergic neuron differentiation score” value with ReNCell VM [2] (library: Spectrum) is inactive: 0.
For `S=c1[nH]cnc2nc[nH]c12`, the neuronal differentiation score in the assay on ReNCell VM [1] (library: Spectrum) is inactive: 0. Moreover, the “dopaminergic neuron differentiation score” value in the assay with ReNCell VM [2] (library: Spectrum) is inactive: 0.
As to `O=C(O)CNC(=O)C(CS)Cc1ccccc1` (stereo not drawn) [Thiorphan], the neuronal differentiation score in the assay on ReNCell VM [1] (library: Prestwick) is inactive: 0. Besides, the “dopaminergic neuron differentiation score” value with ReNCell VM [2] (library: Prestwick) was inactive: 0.
For the compound `NC12CC3CC(CC(C3)C1)C2` [Adamantamine fumarate], in the assay on ReNCell VM [1] (library: Prestwick), the neuronal differentiation score was inactive: 0. The “dopaminergic neuron differentiation score” value in the assay with ReNCell VM [2] (library: Prestwick) was inactive: 0.
As to `O=C(O)c1cn(C2CC2)c2cc(N3CCNCC3)c(F)cc2c1=O` [Ciprofloxacin hydrochloride monohydrate], the neuronal differentiation score in the assay with ReNCell VM [1] (library: Prestwick) is inactive: 0. Also, in the assay with ReNCell VM [2] (library: Prestwick), the “dopaminergic neuron differentiation score” value was inactive: 0.
As for `CC[C@H](/C=C/[C@@H](C)[C@H]1CC[C@H]2[C@@H]3CC=C4C[C@@H](O)CC[C@]4(C)[C@H]3CC[C@]12C)C(C)C`, the neuronal differentiation score with ReNCell VM [1] (library: Spectrum) was inactive: 0. Further, in the assay with ReNCell VM [2] (library: Spectrum), the “dopaminergic neuron differentiation score” value was inactive: 0.
Consider `CN(CCc1ccc(Cl)c(Cl)c1)CC(O)COc1ccc(NS(C)(=O)=O)cc1` (stereo not drawn), for which the neuronal differentiation score in the assay on ReNCell VM [1] (library: Tocriscreen) is inactive: 0. For the same compound, the “dopaminergic neuron differentiation score” value with ReNCell VM [2] (library: Tocriscreen) is inactive: 0.
For `CC(CCc1ccc(O)cc1)NCC(O)c1ccc(O)cc1` (stereo not drawn), the neuronal differentiation score in the assay with ReNCell VM [1] (library: Spectrum) is inactive: 0. In the assay on ReNCell VM [2] (library: Spectrum), the “dopaminergic neuron differentiation score” value was inactive: 0.
In the case of `N[C@@H](CCC(=O)N[C@@H](CSN=O)C(=O)NCC(=O)O)C(=O)O` [S-Nitrosoglutathione], in the assay on ReNCell VM [1] (library: LOPAC), the neuronal differentiation score is inactive: 0. For the same compound, the “dopaminergic neuron differentiation score” value with ReNCell VM [2] (library: LOPAC) was inactive: 0.
Regarding `C[C@H](N[C@@H](CCc1ccccc1)C(=O)O)C(=O)N1Cc2ccccc2C[C@H]1C(=O)O`, in the assay with ReNCell VM [1] (library: Spectrum), the neuronal differentiation score was inactive: 0. Moreover, in the assay on ReNCell VM [2] (library: Spectrum), the “dopaminergic neuron differentiation score” value is inactive: 0.
